PubChem BioAssay AID1259308 – NCATS, 2017

Test: 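Candidate targets for better recombinant protein yield in mammalian cells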 (primary screen)
Cells: human HEK293 embryonic kidney cells stably expressing firefly luciferase (HEK-CMV-Luc2-Hygro)
Knock-down reagent: single siRNA against human genes, 0.8 pmol siRNA per well
Duration: 72 h
Read-out: 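Luciferase light (ONE-Glo) measured on one replicate plate set and viability (CellTiter-Glo) on the other, scaled to a negative control siRNA, with robust z-scores and luciferase per cell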
Direction: total luciferase, z-score and total luciferase, % of control: higher = more reporter protein produced
Rule for the call: 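Active when the median/MAD z-score for overall luciferase is greater than 3; a gene was taken forward for validation with new siRNAs if at least two of its three siRNAs passed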
Meaning of the calls: active = raised luciferase; inactive = no rise
Shown is an unselected part of about 59,000 deposited reagents. Over the whole deposit, about 1,510 (2.6%) were called active. 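Calls use total luciferase alone and ignore viability, so some active siRNAs may act by altering cell number.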 The numbers tell different reagents against one gene apart. Not all columns of the deposit are shown.

| target gene | siRNA no. | total luciferase, z-score | total luciferase, % of control | activity call |
| --- | --- | --- | --- | --- |
| IQSEC1 | 1 | 0.411 | 90.1 | inactive |
| IQSEC1 | 2 | 0.146 | 84.8 | inactive |
| IQSEC1 | 3 | -1.38 | 54.5 | inactive |
| ANKRD30BP3 | 1 | 0.11 | 84.1 | inactive |
| ANKRD30BP3 | 2 | -0.193 | 78.1 | inactive |
| ANKRD30BP3 | 3 | 0.956 | 101 | inactive |
| MPRIP | 1 | -1.87 | 44.8 | inactive |
| MPRIP | 2 | -0.199 | 77.9 | inactive |
| MPRIP | 3 | 1.25 | 107 | inactive |
| PCF11 | 1 | -3.38 | 14.6 | inactive |
| PCF11 | 2 | -2.37 | 34.7 | inactive |
| PCF11 | 3 | -3.17 | 18.9 | inactive |
| PACRGL | 1 | -1.27 | 56.7 | inactive |
| PACRGL | 2 | 0.345 | 88.8 | inactive |
| PACRGL | 3 | -0.396 | 74 | inactive |
| BAIAP3 | 1 | -0.591 | 70.1 | inactive |
| BAIAP3 | 2 | 1.47 | 111 | inactive |
| BAIAP3 | 3 | -0.909 | 63.8 | inactive |
| PIK3C3 | 1 | 0.0807 | 83.5 | inactive |
| PIK3C3 | 2 | -1.07 | 60.6 | inactive |
| PIK3C3 | 3 | -0.37 | 74.5 | inactive |
| TCP10L3 | 1 | -0.421 | 73.5 | inactive |
| TCP10L3 | 2 | -1.44 | 53.2 | inactive |
| TCP10L3 | 3 | -0.68 | 68.4 | inactive |

As entered above.
Under “total luciferase, % of control”, IQSEC1 #2 has 84.8
PACRGL #3, total luciferase, % of control = 74
